Data: PMC5789083, “Mechanisms driving the antibacterial and antibiofilm properties of Hp1404 and its analogue peptides against multidrug-resistant Pseudomonas aeruginosa” (Scientific Reports, 2018)

Tested on: P. aeruginosa 1034
Parameters: species or system BALB/c mice
Settings: mouse, in vivo
Description: BALB/c mice (6 weeks old) were used in this study. The mice were shaved and intradermally injected with 20 µl of P. aeruginosa (1 × 10^8 CFU/ml) in PBS. […] […]; Chosun University, Gwangju, South Korea).

Q: For `O=C(O)c1cn(C2CC2)c2cc(N3CCNCC3)c(F)cc2c1=O` [Ciprofloxacin, ciprofloxacin, reference compound], which “bacterial colonies in infected skin” value is on record?
A: slightly reduced
